Measurements published in article doi:10.1101/2020.01.31.928408.
These are yes or no findings as the source states them, for the method shown. Binding seen in cells or lysates may run through a third protein. Binding can be weak; no strength is given. For some of these results: Sequences can lack the tags named with a protein. Blank lines part the entries; values can stand above or below the binder they belong to.

Legend:
Assay in all cases: co-IP
[1] = molecular target: HA-tagged Gli2 ΔA1 (P1-6A) (mouse)
[2] = molecular target: HA-tagged Gli2 ΔN (P1-6A) (mouse)
[3] = molecular target: HA-tagged Gli2 ΔA2 (P1-6A) (mouse)

binding [1]: binds weakly
binding [2]: binds weakly
binding [3]: binds
B1: Xpo7 (overexpressed in HEK293T) (protein, UniProt Q9EPK7 1-1087)
chain: MADHVQSLAQLENLCKQLYETTDTTTRLQAEKALVEFTNSPDCLSKCQLLLERGSSSYSQLLAATCLTKLVSRTNNPLPLEQRIDIRNYVLNYLATRPKLATFVTQALIQLYARITKLGWFDCQKDDYVFRNAITDVTRFLQDSVEYCIIGVTILSQLTNEINQADTTHPLTKHRKIASSFRDSSLFDIFTLSCNLLKQASGKNLNLNDESQHGLLMQLLKLTHNCLNFDFIGTSTDESSDDLCTVQIPTSWRSAFLDSSTLQLFFDLYHSIPPSFSPLVLSCLVQIASVRRSLFNNAERAKFLSHLVDGVKRILENPQSLSDPNNYHEFCRLLARLKSNYQLGELVKVENYPDVIRLIANFTVTSLQHWEFAPNSVHYLLSLWQRLAASVPYVKATEPHMLETYTPEVTKAYITSRLESVHIILRDGLEDPLEDTGLVQQQLDQLSTIGRCEYEKTCALLVQLFDQSAQSYQELLQSASASPMDIAVQEGRLTWLVYIIGAVIGGRVSFASTDEQDAMDGELVCRVLQLMNLTDSRLAQAGNEKLELAMLSFFEQFRKIYIGDQVQKSSKLYRRLSEVLGLNDETMVLSVFIGKVITNLKYWGRCEPITSKTLQLLNDLSIGYSSVRKLVKLSAVQFMLNNHTSEHFSFLGINNQSNLTDMRCRTTFYTALGRLLMVDLGEDEDQYEQFMLPLTAAFEAVAQMFSTNSFNEQEAKRTLVGLVRDLRGIAFAFNAKTSFMMLFEWIYPSYMPILQRAIELWYHDPACTTPVLKLMAELVHNRSQRLQFDVSSPNGILLFRETSKMITMYGNRILTLGEVPKDQVYALKLKGISICFSMLKAALSGSYVNFGVFRLYGDDALENALQTFIKLLLSIPHSDLLDYPKLSQSYYSLLEVLTQDHMNFIASLEPHVIMYILSSISEGLTALDTMVCTGCCSCLDHIVTYLFKQLSRSTKKRTTPLNRESDCFLHIMQQHPAMIQQMLSTVLNIIIFEDCRNQWSMSRPLLGLILLNEKYFSDLRNSIVNSQPPEKQQAMHLCFENLMEGIERNLLTKNRDRFTQNLSAFRREVNDSMKNSTYGVNSNDMMS

binding [1]: binds
B2: FLAG-SuFu (protein, UniProt Q9Z0P7 1-484)
chain: MAELRPSVAPGPAAPPASGPSAPPAFASLFPPGLHAIYGECRRLYPDQPNPLQVTAIVKYWLGGPDPLDYVSMYRNMGSPSANIPEHWHYISFGLSDLYGDNRVHEFTGTDGPSGFGFELTFRLKRETGESAPPTWPAELMQGLARYVFQSENTFCSGDHVSWHSPLDNSESRIQHMLLTEDPQMQPVRTPFGVVTFLQIVGVCTEELHSAQQWNGQGILELLRTVPIAGGPWLITDMRRGETIFEIDPHLQERVDKGIETDGSNLSGVSAKCAWDDLSRPPEDEEDSRSICLGTQPRRLSGKDTEQIRETLRRGLEINSKPVLPPINSQRQNGLTHDRAPSRKDSLGSDSSTAIIPHELIRTRQLESVHLKFNQESGALIPLCLRGRLLHGRHFTYKSITGDMAITFVSTGVEGAFATEEHPYAAHGPWLQILLTEEFVEKMLEDLEDLTSPEEFKLPKEYSWPEKKLKVSILPDVVFDSPLH
